Results are given in words; binding and its absence hold for the method and conditions named. In cells and extracts the contact can be indirect. Some results given as binding are weak or reduced against the parent protein; the word gives no strength. Where a sequence is shown, tags or fusion partners need not be part of it.

Experiment [1] has as its target T1, synthetic peptide of the first 50 residues of Bak (Bak 1-50).
T1 sequence (peptide): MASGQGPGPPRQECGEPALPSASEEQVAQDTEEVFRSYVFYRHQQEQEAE
In words: GST pull-down of synthetic peptide (100 µg), Western blot.

In experiment [2] the target is T2, BakΔ3 (N-terminal deletion mutant of Bak, amino acids 96-210 of full-length Bak) (Homo sapiens (Human)) (UniProt Q16611).
T2 sequence: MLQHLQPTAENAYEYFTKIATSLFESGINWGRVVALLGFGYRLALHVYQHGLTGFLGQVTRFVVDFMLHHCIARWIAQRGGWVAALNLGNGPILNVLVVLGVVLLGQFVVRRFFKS
In words: GST pull-down from Sf9 extract, immunoblot with anti-Bak.

B1: gst fusion protein containing BBP-Loop2 (internal loop of BBP, amino acids 86 through 133) (peptide, not shown: a dimerising Fc or GST)
chain: HTGYIKVDWQRVEKDMKKAKEQLKIRKSNQIPTEVRSKAEEVVSFVKK
Take B1: the binding entry in experiment [1] is on record as “binds”.

B2: gst fusion protein containing BBP-Loop1 (N-terminal 42 amino acid portion of BBP) (peptide, not shown: a dimerising Fc or GST)
chain: MAASSQGNFEGNFESLDLAEFAKKQPWWRKLFGQESGPSAEK
As to B2, the binding result in experiment [2] and in experiment [1] was “binds” each time.

These data come from US7316915.
